Laboratory results as given in doi:10.1101/2025.07.15.664663.
Results are given in words; binding and its absence hold for the method and conditions named. Some results given as binding are weak or reduced against the parent protein; the word gives no strength.

What was measured:
[1] = target: hen egg-white lysozyme (hen) (UniProt P00698); assay: ITC
[2] = target: hen egg-white lysozyme (hen) (UniProt P00698); assay: solvent PRE NMR
[3] = target: hen egg-white lysozyme (hen) (UniProt P00698); assay: intermolecular PRE NMR

binding [1] | binding [2] | binding [3] | Binder
 |  | binds weakly | MTSL-attached T99C mutant of Spy (protein, UniProt P77754 24-161, MTSL spin label on the cysteine at 99) ADTTTAAPADAKPMMHHKGKFGPHQDMMFKDLNLTDAQKQQIREIMKGQRDQMKRPPLEERRAMHDIIASDTFDKVKAEAQIAKMEEQRKANMLAHMECQNKIYNILTPEQKKQFNANFEKRLTERPAAKGKMPATAE
 |  | binds weakly | MTSL-attached T124C mutant of Spy (protein, UniProt P77754 24-161, MTSL spin label on the cysteine at 124) ADTTTAAPADAKPMMHHKGKFGPHQDMMFKDLNLTDAQKQQIREIMKGQRDQMKRPPLEERRAMHDIIASDTFDKVKAEAQIAKMEEQRKANMLAHMETQNKIYNILTPEQKKQFNANFEKRLCERPAAKGKMPATAE

The next lines start with the binder.

Binder | binding [1] | binding [2] | binding [3]
Escherichia coli chaperone Spy (protein, UniProt P77754 24-161) ADTTTAAPADAKPMMHHKGKFGPHQDMMFKDLNLTDAQKQQIREIMKGQRDQMKRPPLEERRAMHDIIASDTFDKVKAEAQIAKMEEQRKANMLAHMETQNKIYNILTPEQKKQFNANFEKRLTERPAAKGKMPATAE | binds weakly | binds weakly | 
MTSL-attached T35C mutant of Spy (protein, UniProt P77754 24-161, MTSL spin label on the cysteine at 35) ADTTTAAPADAKPMMHHKGKFGPHQDMMFKDLNLCDAQKQQIREIMKGQRDQMKRPPLEERRAMHDIIASDTFDKVKAEAQIAKMEEQRKANMLAHMETQNKIYNILTPEQKKQFNANFEKRLTERPAAKGKMPATAE |  |  | binds weakly
MTSL-attached M53C mutant of Spy (protein, UniProt P77754 24-161, MTSL spin label on the cysteine at 53) ADTTTAAPADAKPMMHHKGKFGPHQDMMFKDLNLTDAQKQQIREIMKGQRDQCKRPPLEERRAMHDIIASDTFDKVKAEAQIAKMEEQRKANMLAHMETQNKIYNILTPEQKKQFNANFEKRLTERPAAKGKMPATAE |  |  | binds weakly
